The results in this text go back to publication PMC7324386.

Test in all cases: proximity labelling; BioID2-tagged bait in 10-day-old transgenic Arabidopsis seedlings, 50 µM biotin for 16 h at room temperature, streptavidin-coated beads, label-free quantitative MS, ratiometric analysis against controls; the SUN1 bait also with MG132 treatment
Test [1] deals with T1, BioID2-NEAP1 (Arabidopsis thaliana) (UniProt Q9M9L3).
T1 sequence: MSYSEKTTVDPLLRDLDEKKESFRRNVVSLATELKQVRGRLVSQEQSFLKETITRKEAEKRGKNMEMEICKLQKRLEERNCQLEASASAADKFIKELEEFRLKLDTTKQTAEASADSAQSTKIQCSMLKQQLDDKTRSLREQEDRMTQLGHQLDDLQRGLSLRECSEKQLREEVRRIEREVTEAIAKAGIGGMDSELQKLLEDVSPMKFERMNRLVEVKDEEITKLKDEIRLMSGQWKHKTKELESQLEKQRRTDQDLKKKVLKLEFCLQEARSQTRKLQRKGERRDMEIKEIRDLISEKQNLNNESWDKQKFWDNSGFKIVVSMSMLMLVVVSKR

Test [2] has as its target T2, Nup93a-BioID2 (Arabidopsis thaliana) (UniProt O22224).
T2 sequence: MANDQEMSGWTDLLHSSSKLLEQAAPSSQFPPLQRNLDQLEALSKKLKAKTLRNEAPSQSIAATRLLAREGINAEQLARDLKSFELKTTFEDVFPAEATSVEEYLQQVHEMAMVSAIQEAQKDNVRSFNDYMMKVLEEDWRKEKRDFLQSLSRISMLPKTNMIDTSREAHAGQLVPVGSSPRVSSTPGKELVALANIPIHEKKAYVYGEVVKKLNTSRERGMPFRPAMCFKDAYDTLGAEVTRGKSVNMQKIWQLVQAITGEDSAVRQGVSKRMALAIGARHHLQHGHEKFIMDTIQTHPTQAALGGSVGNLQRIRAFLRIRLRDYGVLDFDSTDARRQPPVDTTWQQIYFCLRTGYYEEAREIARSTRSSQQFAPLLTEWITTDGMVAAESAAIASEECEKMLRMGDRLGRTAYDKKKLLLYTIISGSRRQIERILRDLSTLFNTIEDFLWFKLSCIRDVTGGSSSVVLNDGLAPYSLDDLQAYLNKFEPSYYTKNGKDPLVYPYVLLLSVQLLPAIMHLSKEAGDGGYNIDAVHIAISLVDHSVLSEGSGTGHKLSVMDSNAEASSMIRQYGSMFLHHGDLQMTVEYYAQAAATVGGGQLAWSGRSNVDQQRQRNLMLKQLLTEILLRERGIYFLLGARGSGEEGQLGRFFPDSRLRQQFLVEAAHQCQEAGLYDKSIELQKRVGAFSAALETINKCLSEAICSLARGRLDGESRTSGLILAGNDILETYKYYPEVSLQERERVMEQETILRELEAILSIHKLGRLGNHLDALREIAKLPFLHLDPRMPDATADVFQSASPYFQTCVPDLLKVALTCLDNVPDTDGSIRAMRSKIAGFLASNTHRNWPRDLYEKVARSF

Test [3] concerns the target T3, HA-BioID2-SUN1 (Arabidopsis thaliana) (UniProt Q9FF75).
T3 sequence: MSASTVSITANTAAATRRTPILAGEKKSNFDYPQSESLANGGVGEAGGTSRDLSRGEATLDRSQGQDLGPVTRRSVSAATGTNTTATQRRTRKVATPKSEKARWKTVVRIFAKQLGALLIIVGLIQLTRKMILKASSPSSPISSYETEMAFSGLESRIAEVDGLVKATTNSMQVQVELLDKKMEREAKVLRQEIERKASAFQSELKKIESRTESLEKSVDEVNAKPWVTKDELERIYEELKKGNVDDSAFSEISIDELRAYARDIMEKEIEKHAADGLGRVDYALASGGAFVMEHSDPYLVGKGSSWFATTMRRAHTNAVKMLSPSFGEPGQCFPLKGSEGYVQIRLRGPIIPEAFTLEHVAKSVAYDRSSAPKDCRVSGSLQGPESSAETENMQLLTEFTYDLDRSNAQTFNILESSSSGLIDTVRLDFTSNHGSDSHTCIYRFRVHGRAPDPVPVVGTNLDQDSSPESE

For test [4], the target named is HA-BioID2-NEMP_A (Arabidopsis thaliana) (UniProt Q9SHQ6).

Results are given in words; binding and its absence hold for the method and conditions named. In cells and extracts the contact can be indirect. A yes stands for co-enrichment or nearness to the bait. Other partners may have been found. For some assays here: A no says only that the protein was not detected with the bait. For some assays here: Where a sequence is shown, tags or fusion partners need not be part of it.

B1: PUX4 (protein, UniProt Q8RWU7 1-303)
chain: MSSKDKKPSKPSSSRGGIRTLSDLNRRSGPDSDSDSDGPQEYYTGGEKSGMLVQDPSKKDDVDEIFNQARQLGAVEGPLEPPPSSRSFTGTGRLLSGENVPTGNQQPEPVVHNIVFWSNGFTIDDGPLRKLDDPENASFLESIRKSECPKELEPADRRAPVHVNLMRKEEKCPERQKRRVSFQGVGRTLGGSNEGSGSSSPVAPDSAPIPIQTEPAPSQSLVIDETVPTTSIQLRLADGTRLVAKFNHHHTVNDIRGFIDSSRPGASLNYQLQTMGFPPKPLTDLTQTIEEAGLANSVVLQKF
With B1, the binding result in test [1] is recorded as “binds”; in test [2], “no binding”; in test [3] it was “binds”; in test [4] it was “binds”.

B2: PUX5 (protein, UniProt Q7Y175 1-421)
chain: MATETNENLINSFIEITSSSREEANFFLESHTWNLDAAVSTFLDNDAAAAAEPNPTGPPPPSSTIAGAQSPSQSHSPDYTPSETSPSPSRSRSASPSSRAAPYGLRSRGGAGENKETENPSGIRSSRSRQHAGNIRTFADLNRSPADGEGSDSDEANEYYTGGQKSGMMVQDPKKVKDVDELFDQARQSAVDRPVEPSRSASTSFTGAARLLSGEAVSSSPQQQQQEQPQRIMHTITFWLNGFTVNDGPLRGFSDPENAAFMNSISRSECPSELEPADKKIPVHVDLVRRGENFTEPPKPKNPFQGVGRTLGASGSGSSSAPQASSAPMNVAPAPSRGLVVDPAAPTTSIQLRLADGTRLVSRFNNHHTVRDVRGFIDASRPGGSKEYQLLTMGFPPKQLTELDQTIEQAGIANAVVIQKF
With B2, the binding result is reported as “binds” in test [1], “no binding” in test [2], “binds” in test [3] and “binds” in test [4].

B3: UFD1C (protein, UniProt Q8W570 1-311)
chain: MFYDGYAYHGTTFEQTYRCYPSSFIDKPQIESGDKIIMPPSALDRLASLQIDYPMLFELRNASTDSFSHCGVLEFIAEEGVIYIPYWMMQNLLLQEGDMVRVRNVTLPKGTYVKLQPHTTDFLDIANPKAILETALRNYSCLTVGDSIMVPYNNKKYFIDIVEAKPSNGISIIETDCEVDFAPPLDYKEPERPVAPAPAKAKEVDVAEAEPKFNPFTGSGRRLDGRPLSYEPQPGAANSNGQSHPVASSSSSGSEKATQQNRGKLVFGSNVERSTKETTKVGAGKDRKQEEEAEKEAKFQAFSGKKYSLRG
As to B3, the binding result in test [1] was “binds”; in test [2], “no binding”; in test [3], “binds”.

B4: UFD1B (protein, UniProt Q9SJV0 1-340)
chain: MVLRFCCHLLTYSVSLLPPITMFFDGYHYHGTTFEQSYRCYPASFIDKPQLESGDKIIMPPSALDRLASLHIDYPMLFELRNAGIERVTHCGVLEFIAEEGMIYMPYWMMQNLLLQEGDIVRVRNVTLPKGTYVKLQPHTTDFLDISNPKAILETALRNYSCLTSGDSIMVPYNNKKYFIDIVETKPANAISIIETDCEVDFAPPLDYKEPERPTAPSAAKGPAKAEEVVDEPEPKFNPFTGSGRRLDGRPLAYEPAPASSSKGKQPVVANGNGQSSVASSSEKATRAQGKLVFGANGNRAPKEAAPKVGAAKETKKEEQEKKDEPKFQAFSGKKYSLRG
With B4, the binding entry was “binds” in test [1], “no binding” in test [2] and “binds” in test [3].
